The supplement of paper PMC5949888
Most values lie at the floor of the assay. Slopes are relative: functional sequences can read slightly below zero.

These substances were tested on Saccharomyces cerevisiae PS128 hsf1 delta, HSF1(1-493) fusion (assay: growth estimate (transactivation domain function in HSF1 fusion, heat-shock survival) (a.u. (slope of normalised read count over time)); higher = stronger growth at 37°C, i.e. more transactivation activity). Conditions: library: random library.
In the case of CVEEVGYD, the growth estimate is reported as < -0.25.
For SIIPEMYPACRRFHSRPGSC, the growth estimate was < -0.25.
PLSEPPRPLS was tested, and the growth estimate was < -0.25.
In the case of SNVPLFEISLPPRSLHGDRH, the growth estimate is reported as < -0.25.
MMLL was tested, and the growth estimate was < -0.25.
With AVV the growth estimate was < -0.25.
With QYGVDKGILKMITSTVVAVM the growth estimate was < -0.25.
For PQGKVPLTFHEWTNRYRSA, the growth estimate was < -0.25.
In the case of SRANLGRNLKCYSTRYTNWA, the growth estimate is reported as < -0.25.
With MQGDRWQAARDEAPDTSFF the growth estimate was < -0.25.
PLSPPCCTSLLNENIEFWLL showed a growth estimate of 48.3.
In the case of KRVQTVMRLQHGVSISARHS, the growth estimate is reported as < -0.25.
For CIELEAYVQIQAVVAGTNSR, the growth estimate was < -0.25.
For LYLSADVLVLTPRK, the growth estimate was < -0.25.
Work on RRGLSNREQHECAHYGFARR yielded a growth estimate of -0.239.
In the case of VVRGAYIVTMVTIKCFRWRI, the growth estimate is reported as < -0.25.
For RVNYRGWF, the growth estimate was < -0.25.
With GFMFLTYRQMSYVYEPA the growth estimate was < -0.25.
YVPDRAD was tested, and the growth estimate was < -0.25.
For NTGAHIIGANGG, the growth estimate was < -0.25.
For AEGV, the growth estimate was < -0.25.
For ARLLVTITNKGPDRTSESDG, the growth estimate was < -0.25.
For RQPLHIIGGVRSPNEGYSRS, the growth estimate was < -0.25.
In the case of VGCGTSGCLRPNG, the growth estimate is reported as < -0.25.
NVKDSCKRTTEWKASDLVTG was tested, and the growth estimate was < -0.25.
RHSEI was tested, and the growth estimate was < -0.25.
RCAQENI was tested, and the growth estimate was < -0.25.
With HGLFCVWGITMVI the growth estimate was < -0.25.
TCIGRCCSPVLRSMV was tested, and the growth estimate was < -0.25.
In the case of PSHTAGPIGHDASH, the growth estimate is reported as < -0.25.
STGTDHVDQCWFIGGEPTCM showed a growth estimate of 1.75.
In the case of SRCRYAGRLTDECVYIRMRR, the growth estimate is reported as < -0.25.
In the case of HDREP, the growth estimate is reported as < -0.25.
In the case of ALSNLIVFRRSGVSASINY, the growth estimate is reported as < -0.25.
SSLP was tested, and the growth estimate was < -0.25.
With SFLLN the growth estimate was < -0.25.
RSCRIPAR was tested, and the growth estimate was < -0.25.
With SVGVSSSDKSHVYRHFSSAL the growth estimate was < -0.25.
With CIFCIVRRMTVGRDGTRRWP the growth estimate was < -0.25.
For TGLCGTEVSNIPTQEDIVQW, the growth estimate was < -0.25.
FLEPSSDVNTSSGSAT was tested, and the growth estimate was < -0.25.
ELTGVVRFANGR was tested, and the growth estimate was < -0.25.
For STGGQPKRDDLT, the growth estimate was < -0.25.
APLFTRWAVSSRQNADRVYP was tested, and the growth estimate was < -0.25.
With VLSANPLKAMGSENRKGRGP the growth estimate was < -0.25.
In the case of VPGGVRMIGQI, the growth estimate is reported as < -0.25.
In the case of PVIILVQAGIIWPNLHDEV, the growth estimate is reported as < -0.25.
For GVYFIRMCETHVSCLEALRC, the growth estimate was < -0.25.
With TFRQELTEGWTKDWGGIYVV the growth estimate was < -0.25.
GSPSWGSRLPRWLVGLTPTL was tested, and the growth estimate was < -0.25.
With GWTRRVG the growth estimate was -0.246.
For ECPRSLGKM, the growth estimate was < -0.25.
PICLAPAFDTVTETGYRQNA was tested, and the growth estimate was < -0.25.
With WIPVSNWEGREGEGTVPVPA the growth estimate was < -0.25.
With RGNG the growth estimate was < -0.25.
In the case of SQWVFCPMAVDRNNVKVCRG, the growth estimate is reported as < -0.25.
In the case of RSWENQDL, the growth estimate is reported as < -0.25.
With PNHAPRPY the growth estimate was < -0.25.
GPVKSSISHALLRGKNDGSS was tested, and the growth estimate was < -0.25.
With STFYGH the growth estimate was < -0.25.
In the case of SSAIEFYL, the growth estimate is reported as < -0.25.
With FTWDG the growth estimate was < -0.25.
With QYTA the growth estimate was < -0.25.
In the case of IHRRGM, the growth estimate is reported as < -0.25.
In the case of PIH, the growth estimate is reported as < -0.25.
In the case of YTECAYYGVHPYATSAVNT, the growth estimate is reported as < -0.25.
For VEPLMVNCGSINRD, the growth estimate was < -0.25.
For DRSVR, the growth estimate was < -0.25.
DLIV was tested, and the growth estimate was < -0.25.
SSHAKQDSTEDSTGGVLAIL was tested, and the growth estimate was < -0.25.
REPFRTNIAEGACMPKSCTG was tested, and the growth estimate was < -0.25.
For AFDRSLRYRELLERCNRLKM, the growth estimate was < -0.25.
With FRWEFKSGGEVVDTFPHALH the growth estimate was < -0.25.
In the case of PGEACVKSIYTSKGRSMKLT, the growth estimate is reported as < -0.25.
For LDPTQWPYGTGIHGRNSIKF, the growth estimate was < -0.25.
In the case of IPRLYVLCFCNHYSHTVHWS, the growth estimate is reported as < -0.25.
In the case of DLYRDDSRKYFCRARWSMLP, the growth estimate is reported as < -0.25.
VRPRGGSVVEKVLNSLPLAE was tested, and the growth estimate was < -0.25.
FHVYGN was tested, and the growth estimate was < -0.25.
For SSAVPNGRF, the growth estimate was < -0.25.
For GVQR, the growth estimate was < -0.25.
